At least one compound was matched to its structure with a doubt left.
Tests used:
[1] = system: bovine choroidal endothelial (BCE) cells; experiment: BCE endothelial cell proliferation assay (alamar blue); type: cell-based; settings: pre-incubation with inhibitor 1 hour, LIF 10 ng/ml, 6 days
Protocol: The bovine endothelial proliferation assays were performed essentially as previously described (63, 64). BCE (1×10^3 cells/well) or BRE (5×10^2 cells/well) cells were seeded in 96-well plates in the culture medium (DMEM-low glucose supplemented with 10% BCS, 2 mM glutamine and antibiotics) plus testing materials with a total volume of 200 μl per well. BAE cells were plated in 96-well plates at a density of 2×10^3 cells in the culture medium (DMEM-low glucose supplemented with 1% BCS and antibiotics) plus testing material with a total volume of 200 μl per well. HRME cells were seeded at a density of 1×10^3 cells/well in gelatin-coated 96-well plates in assay medium (DMEM-low glucose supplemented with 20% FBS and antibiotics) plus testing materials to make a total volume 200 μl per well. For assays involving antibodies or small-molecule inhibitors, inhibitors or vehicle controls were first added and then test materials were added one hour later. After 6 days (unless otherwise specified), cells were incubated with alamar blue for 4 h. Fluorescence was measured at 530 nm excitation wavelength and 590 nm emission wavelength. Each experiment was carried out in duplicate/triplicate and repeated at least three times.

[2] = system: phosphorylation of STAT3, ERK and AKT in BCE cells; experiment: Western blotting of LIF signaling in BCE cells; type: cell-based, bovine; settings: pre-incubation 1 hour (baricitinib 2 μM, cobimetinib 150 nM, BEZ235 5 nM), then LIF 10 ng/ml 15 minutes
Protocol: BCE and BAE cells were cultured in growth medium overnight. Growth medium was removed and then cells were washed twice with PBS. Recombinant human LIF was added to cells for 15 minutes, following 3-hour incubation in the following medium: DMEM-low glucose supplemented with 10% BCS, 2 mM glutamine and antibiotics for BCE cells, and DMEM-low glucose supplemented with 1% BCS and antibiotics for BAE cells. […] Cells were then lysed with RIPA lysis buffer (Life Technologies, CAT #89901) plus protease and phosphatase inhibitor cocktail (ThermoFisher Scientific CAT #78440). Protein concentrations in cell lysates were measured with the BCA assay (ThermoFisher Scientific CAT #23227). Equal amount of proteins were subjected to electrophoresis in NuPAGE 4-12% Bis-Tris gels (ThermoFisher Scientific, CAT #NW04125BOX) and then transferred onto PVDF membranes. Membranes were blocked with 5% non-fat milk in TBST at room temperature for 1 hour, incubated with primary antibodies indicated below in TBST containing 0.5% non-fat milk at 4° C. overnight then with secondary HRP-conjugated antibodies (1:2000, GE Healthcare) at room temperature for 1 h. Signals were developed with SuperSignal™ West Pico PLUS Chemiluminescent Substrate (ThermoFisher Scientific). […]

[3] = system: phosphorylation of STAT3, ERK and AKT in BAE cells; experiment: Western blotting of LIF signaling in BAE cells; type: cell-based, bovine; settings: pretreatment 1 hour (baricitinib 2 μM, cobimetinib 150 nM, BEZ235 5 nM), LIF 10 ng/ml 15 minutes
Protocol: BCE and BAE cells were cultured in growth medium overnight. Growth medium was removed and then cells were washed twice with PBS. Recombinant human LIF was added to cells for 15 minutes, following 3-hour incubation in the following medium: DMEM-low glucose supplemented with 10% BCS, 2 mM glutamine and antibiotics for BCE cells, and DMEM-low glucose supplemented with 1% BCS and antibiotics for BAE cells. […] Cells were then lysed with RIPA lysis buffer (Life Technologies, CAT #89901) plus protease and phosphatase inhibitor cocktail (ThermoFisher Scientific CAT #78440). Protein concentrations in cell lysates were measured with the BCA assay (ThermoFisher Scientific CAT #23227). Equal amount of proteins were subjected to electrophoresis in NuPAGE 4-12% Bis-Tris gels (ThermoFisher Scientific, CAT #NW04125BOX) and then transferred onto PVDF membranes. Membranes were blocked with 5% non-fat milk in TBST at room temperature for 1 hour, incubated with primary antibodies indicated below in TBST containing 0.5% non-fat milk at 4° C. overnight then with secondary HRP-conjugated antibodies (1:2000, GE Healthcare) at room temperature for 1 h. Signals were developed with SuperSignal™ West Pico PLUS Chemiluminescent Substrate (ThermoFisher Scientific). Primary antibodies used: anti-phospho-STAT3 (Cell Signaling, CAT #9131, 1:3000), anti-STAT3 (Cell Signaling, CAT #4904, 1:3000), anti-phospho-ERK (Cell Signaling, CAT #4376, 1:5000), anti-ERK (Cell Signaling, CAT #4695, 1:5000), anti-phospho-AKT Ser473 (Cell Signaling, CAT #4060, 1:2000), anti-AKT (Cell Signaling, CAT #4691, 1:2000) and HRP-conjugated anti-beta-actin (Sigma, CAT #AC-15, 1; 10000).

SMILES: CCS(=O)(=O)N1CC(CC#N)(n2cc(-c3ncnc4[nH]ccc34)cn2)C1 [baricitinib, Baricitinib]
- effect on LIF-induced BCE cell growth [1]: completely blocked
- effect on LIF-induced phosphorylation of ERK MAPK [2]: almost completely suppressed
- effect on LIF-induced phosphorylation of STAT3 [2]: almost completely suppressed
- effect on LIF-induced phosphorylation of AKT [3]: significantly suppressed
- effect on LIF-induced phosphorylation of ERK [3]: significantly suppressed
- effect on LIF-induced phosphorylation of STAT3 [3]: significantly suppressed
